Results published in publication PMC3834828.
Residue numbers refer to the chain shown, from its start. No constants are given. Whether binding was seen depends on the method and setting. Some entries that bind do so weakly or less than the wild type. Each block holds one binder with its values, some of them ahead of it.

Legend:
Assay in all cases: co-purification (glutathione-Sepharose, Heparin-Sepharose, Superose 12 gel filtration); subunits co-expressed in E. coli from a dicistronic plasmid; buffer A: 50 mM sodium phosphate pH 8, 300 mM NaCl, 2 mM β-mercaptoethanol, 10% glycerol, 0.2% CHAPS; fractions analysed by SDS-PAGE
[1] = target: T1, human MUS81 (hMUS81), wild type, as subunit of the recombinant MUS81-EME1/EME2 complexes (human) (UniProt Q96NY9)
T1 sequence: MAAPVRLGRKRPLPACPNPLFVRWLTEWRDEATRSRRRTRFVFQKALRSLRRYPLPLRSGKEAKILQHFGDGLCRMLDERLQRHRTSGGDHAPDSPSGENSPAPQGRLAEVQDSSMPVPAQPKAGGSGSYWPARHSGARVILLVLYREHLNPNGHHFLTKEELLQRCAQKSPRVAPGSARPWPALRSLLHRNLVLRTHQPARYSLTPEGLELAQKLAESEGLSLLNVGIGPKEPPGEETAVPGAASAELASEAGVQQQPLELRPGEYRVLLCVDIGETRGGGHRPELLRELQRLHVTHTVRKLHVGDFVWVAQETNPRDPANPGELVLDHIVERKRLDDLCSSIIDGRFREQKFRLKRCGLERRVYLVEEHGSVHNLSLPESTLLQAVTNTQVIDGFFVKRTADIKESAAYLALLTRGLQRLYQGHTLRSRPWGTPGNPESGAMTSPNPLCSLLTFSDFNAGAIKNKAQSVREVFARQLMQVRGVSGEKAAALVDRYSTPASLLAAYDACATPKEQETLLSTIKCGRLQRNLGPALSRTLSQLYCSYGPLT

[2] = target: T2, human MUS81 D339N (catalytically impaired) (human) (UniProt Q96NY9)
T2 sequence: T1 sequence with D339N

[3] = target: T3, human MUS81 with the WH domain (residues 128-230) deleted (human) (UniProt Q96NY9)
T3 sequence: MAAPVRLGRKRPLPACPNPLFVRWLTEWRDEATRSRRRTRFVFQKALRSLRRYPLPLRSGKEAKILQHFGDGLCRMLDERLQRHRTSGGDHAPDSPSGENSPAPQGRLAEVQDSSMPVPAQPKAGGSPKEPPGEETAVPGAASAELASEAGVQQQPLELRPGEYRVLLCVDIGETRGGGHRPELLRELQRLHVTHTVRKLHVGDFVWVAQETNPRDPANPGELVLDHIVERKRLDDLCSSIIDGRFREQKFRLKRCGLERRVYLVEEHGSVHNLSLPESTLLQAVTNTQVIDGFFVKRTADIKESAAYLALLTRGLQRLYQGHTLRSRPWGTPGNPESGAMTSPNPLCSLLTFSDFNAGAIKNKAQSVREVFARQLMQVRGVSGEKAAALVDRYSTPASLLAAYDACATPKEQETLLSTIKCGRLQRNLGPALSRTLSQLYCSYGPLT

[4] = target: T4, human MUS81 R186A/R191A (double mutation in helix α3 of the WH domain) (human) (UniProt Q96NY9)
T4 sequence: T1 sequence with R186A, R191A

binding [1]: binds
binding [2]: binds
binding [3]: binds
B1: human EME1, longer transcript variant EME1(583) (protein, UniProt Q96AY2-2 1-583)
chain: MALKKSSPSLDSGDSDSEELPTFAFLKKEPSSTKRRQPEREEKIVVVDISDCEASCPPAPELFSPPVPEIAETVTQTQPVRLLSSESEDEEEFIPLAQRLTCKFLTHKQLSPEDSSSPVKSVLDHQNNEGASCDWKKPFPKIPEVPLHDTPERSAADNKDLILDPCCQLPAYLSTCPGQSSSLAVTKTNSDILPPQKKTKPSQKVQGRGSHGCRQQRQARQKESTLRRQERKNAALVTRMKAQRPEECLKHIIVVLDPVLLQMEGGGQLLGALQTMECRCVIEAQAVPCSVTWRRRAGPSEDREDWVEEPTVLVLLRAEAFVSMIDNGKQGSLDSTMKGKETLQGFVTDITAKTAGKALSLVIVDQEKCFSLELLFFDFLPCTSAQNPPRRGKQGANKQTKKQQQRQPEASIGSMVSRVDAEEALVDLQLHTEAQAQIVQSWKELADFTCAFTKAVAEAPFKKLRDETTFSFCLESDWAGGVKVDLAGRGLALVWRRQIQQLNRVSLEMASAVVNAYPSPQLLVQAYQQCFSDKERQNLLADIQVRRGEGVTSTSRRIGPELSRRIYLQMTTLQPHLSLDSAD

binding [1]: binds
binding [2]: binds
binding [4]: binds
binding [3]: binds
B2: human EME2 (protein, UniProt A4GXA9-1 1-379)
chain: MARVGPGRAGVSCQGRGRGRGGSGQRRPPTWEISDSDAEDSAGSEAAARARDPAGERRAAAEALRLLRPEQVLKRLAVCVDTAILEDAGADVLMEALEALGCECRIEPQRPARSLRWTRASPDPCPRSLPPEVWAAGEQELLLLLEPEEFLQGVATLTQISGPTHWVPWISPETTARPHLAVIGLDAYLWSRQHVSRGTQQPESPKVAGAEVAVSWPEVEEALVLLQLWANLDVLLVASWQELSRHVCAVTKALAQYPLKQYRESQAFSFCTAGRWAAGEPVARDGAGLQAAWRRQIRQFSRVSPAVADAVVTAFPSPRLLQQALEACSTERERMGLLADLPVPPSEGGRPRRVGPDLSRRICLFLTTANPDLLLDLGS
